# Literature values as cited in patent US20040018533A1, “Diagnosing predisposition to fat deposition and therapeutic methods for reducing fat deposition and treatment of associated conditions” (priority 2002, published 2004).
# At least one structure is not confirmed: it was looked up by name or label, or the drawing left a doubt.
# Tested on: insulin-resistant humans
# Conditions: Ehrman et al. (1997)
compound,measurement,value
Cc1c(C)c2c(c(C)c1O)CCC(C)(COc1ccc(CC3SC(=O)NC3=O)cc1)O2 (stereo not shown) [troglitazone],effectiveness in PCOS,effective in PCOS
